Assay results reported in the supplement of paper PMC5949888.
Most values lie at the floor of the assay. Slopes are relative: functional sequences can read slightly below zero.

system: Saccharomyces cerevisiae PS128 hsf1 delta, HSF1(1-493) fusion; assay: growth estimate (transactivation domain function in HSF1 fusion, heat-shock survival) (a.u. (slope of normalised read count over time)); higher = stronger growth at 37°C, i.e. more transactivation activity; conditions: library: random library

| Substance | growth estimate |
| --- | --- |
| RLTLCTLRYCNDLPPCADAD | < -0.25 |
| RLTLPGAAHRLITATGVPIE | < -0.25 |
| RLVQPARD | < -0.25 |
| RLVSDKGVHQMVSDRTNHKA | < -0.25 |
| RLVSWEC | < -0.25 |
| RLVSYPELGPARVW | < -0.25 |
| RLWATRLSIHGSTDGTLVVW | < -0.25 |
| RLWVDGQDGKQVTWTPNLRI | < -0.25 |
| RLWVRWFHRGGGSLKHNVVT | -0.246 |
| RLY | -0.245 |
| RLYASVSRGHPAPERINTDN | < -0.25 |
| RLYFSGSYVTGWSKSREDRV | < -0.25 |
| RLYSSHWVSRALWCRCPHPE | < -0.25 |
| RMCTRSIIMEFAL | < -0.25 |
| RMGLRPGTYWGVRRRGPLAV | < -0.25 |
| RMGLWGTMASQS | < -0.25 |
| RMGSICI | < -0.25 |
| RMHTRHALLDVCW | < -0.25 |
| RMKSPLVRAGELELSMPPQV | < -0.25 |
| RMLGDYSVGAAL | < -0.25 |
| RMLLPPRFQWGRLLVK | < -0.25 |
| RMLNIRTRAYLRSLLERNDG | -0.245 |
| RMNTRFIP | -0.203 |
| RMNWFKGGVSEVEELFLET | 0.0385 |

| Substance | growth estimate |
| --- | --- |
| RMQLGYRAIVEFGTGCTRPL | < -0.25 |
| RMRGDCAASPIRACLSSKAQ | < -0.25 |
| RMRLKWCRCLLRNPPTGTRY | < -0.25 |
| RMRVNLRIH | -0.243 |
| RMSLVILAQTTGT | < -0.25 |
| RMTDLGLGSQRDVVVVVRQR | < -0.25 |
| RMTRSIFVQVDGEF | < -0.25 |
| RMVDRCDPVALAVSLRMSLT | < -0.25 |
| RMYLIIPETSAYDEQSELNK | < -0.25 |
| RNASDSGVS | < -0.25 |
| RNCLPRNSIGWSVMTAVLGR | < -0.25 |
| RND | < -0.25 |
| RNDLSIRVVTTKGRQGS | < -0.25 |
| RNFIIALFYKLSLPAQRLH | < -0.25 |
| RNGEKEVHGPKGRAFLVTGP | < -0.25 |
| RNGNKVTGRPSP | < -0.25 |
| RNGRCVLFNGRRSGW | < -0.25 |
| RNGSSDL | < -0.25 |
| RNH | < -0.25 |
| RNHRLSGGV | < -0.25 |
| RNINY | < -0.25 |
| RNISLEDHRCAS | < -0.25 |
| RNKLRQRRAP | < -0.25 |
| RNKVISLAMKRPRQGEHLSF | < -0.25 |

| Substance | growth estimate |
| --- | --- |
| RNQ | < -0.25 |
| RNQFHGPDSRAEILHRRIGI | < -0.25 |
| RNRKPGGTCHCR | -0.14 |
| RNRSERANTRAYGRGSREGA | < -0.25 |
| RNSKLKLSGECLRLHMITVR | < -0.25 |
| RNSPIIRFGLAVSTRRTKVH | < -0.25 |
| RNSSRQPET | < -0.25 |
| RNTLDWHADAAYLWRFKHAS | < -0.25 |
| RNTRVLLAAWVPTTTPSQRG | < -0.25 |
| RNVCRSALVDDGSRSFTRIP | < -0.25 |
| RNVEEVSRDSDSPYR | < -0.25 |
| RNVISSY | < -0.25 |
| RNVMLGGVDTPVRNYITHTW | < -0.25 |
| RNVTAFITGRRRFVLRVRA | < -0.25 |
| RNWDA | < -0.25 |
| RNWWLI | < -0.25 |
| RNYHFGVRCIVTGQ | < -0.253 |
| RPA | < -0.25 |
| RPAGSHHRQIGLVHGGYGSS | < -0.25 |
| RPAIQFVRIVI | < -0.25 |
| RPAN | -0.246 |
| RPAR | < -0.25 |
| RPASLLHGLKLQIVVISVNA | < -0.25 |
| RPDKRPEFVSGAQ | < -0.25 |

| Substance | growth estimate |
| --- | --- |
| RPESTANEGAWLSPLTASAA | < -0.25 |
| RPFGISGIAILVTVVVGSHD | < -0.25 |
| RPGASQCPTLPHAVRRYVPS | < -0.25 |
| RPGQRPNQSKTLLDHRC | < -0.25 |
| RPGRCAATTTNILWWAKSTV | < -0.25 |
| RPGRKVSRARPFSSRSPSTV | -0.238 |
| RPIVDLIKRLGWRRRDYSSA | < -0.25 |
| RPIWIALRWGCSEIAPLIDD | < -0.25 |
| RPIYP | < -0.25 |
| RPLF | < -0.25 |
| RPLFPVYILGAICRVRCSDQ | < -0.25 |
| RPLPRT | < -0.25 |
| RPLRLSIMDRWYCV | < -0.25 |
| RPLTQVVSYDTLEENARVSL | < -0.25 |
| RPLVGVGRNWTFVPAGTWLR | < -0.25 |
| RPMGIKVAMGDWTHTGPPW | < -0.25 |
| RPPE | < -0.25 |
| RPPGSDVWEPCPSCGVDKSV | < -0.25 |
| RPPIWNPRNVL | < -0.25 |
| RPPLTSYLWCVGITGYGPTR | < -0.25 |
| RPPNDTSTMP | < -0.25 |
| RPQFGQGRSVQLSPSIVSDR | < -0.25 |
| RPQYRGLNILLT | < -0.25 |
| RPRGAKR | < -0.25 |

| Substance | growth estimate |
| --- | --- |
| RPRPNSLGLGARSPGFDPGL | < -0.25 |
| RPRPRCASVPLWLVAGSHMR | < -0.25 |
| RPRSGPSRDRARWKS | < -0.25 |
| RPSEVVCTVVSPRSTST | < -0.25 |
| RPSGDRERW | < -0.25 |
| RPSGNRWEVSLRF | < -0.25 |
| RPSILVSYGAPVQTALTIRR | < -0.25 |
| RPSLHVYDPRRSISGVLDAH | < -0.25 |
| RPSMGNSGCRSIISKRQWND | < -0.25 |
| RPSTNVAEVRA | < -0.25 |
| RPSVVIKRRDSRVGVLFVYT | -0.243 |
| RPTEGRHRGSARFGELLLDS | < -0.25 |
| RPTLRAPLFAGDE | < -0.25 |
| RPTRR | < -0.25 |
| RPVTYVGHGVQVDYNTHIND | < -0.25 |
| RPVVCGREIRPPRTR | < -0.25 |
| RPWKIECRGRAQFVRNLSSF | < -0.25 |
| RPYLGGHYRDRAE | < -0.25 |
| RPYRGRRGSAHIFSVQETS | -0.122 |
| RPYSGHRLCP | < -0.25 |
| RPYVAGVEKRSGKNYA | < -0.25 |
| RQAFGRDFAISRILGGFPSM | < -0.25 |
| RQARVLSALHSAESLCLIKV | < -0.25 |
| RQATVGSRGP | < -0.25 |

| Substance | growth estimate |
| --- | --- |
| RQEKHGSSRREWRILRDKAK | < -0.25 |
| RQF | < -0.25 |
| RQFIGLDAVGRFQA | < -0.25 |
| RQGHSSTPDSDGPYCL | < -0.25 |
| RQGPRQSTGGLERLN | < -0.25 |
| RQGSKVMPSAVWAPTRCGTE | < -0.25 |
| RQGTG | < -0.25 |
| RQGVPFYDKDLI | < -0.25 |
| RQGVYRGLMCSWATGTRR | < -0.25 |
| RQIAAASASRARSLYNRGSY | < -0.25 |
| RQIHGVGPRVCAAYVQVMTG | < -0.25 |
| RQIIQCGQGPEGQKLPTSSP | < -0.25 |
| RQIISNIPFRNLQLCN | < -0.25 |
| RQKCNRATRAILIGGRLSYW | < -0.25 |
| RQLAPIVSVAHANAMGSDNA | < -0.25 |
| RQLGMHRPGLANPRCSSGEA | < -0.25 |
| RQLIVFGRSSRQEAKIRSPR | < -0.25 |
| RQMGPQYPGGKQHHGDLPPQ | < -0.25 |
| RQNGQWG | < -0.25 |
| RQPRLTSRSLGPPVQRRPRC | < -0.25 |
| RQPSDTWYEISITGAAARAW | -0.246 |
| RQQREKECALKCGKMSLVIC | < -0.25 |

Looked up one by one from the list above:

| Substance | growth estimate |
| --- | --- |
| RQGVPFYDKDLI | < -0.25 |
| RQNGQWG | < -0.25 |
| RQEKHGSSRREWRILRDKAK | < -0.25 |
| RQGHSSTPDSDGPYCL | < -0.25 |
| RQIAAASASRARSLYNRGSY | < -0.25 |
